No constants are given. Whether binding was seen depends on the method and setting. In cells and extracts the contact can be indirect. Here binding means that the protein was enriched with, or labelled near, the bait; the list need not be complete. No binding means not detected with the bait.

Amino acid sequences for entries named in this document (tags omitted).
UniProt P60842: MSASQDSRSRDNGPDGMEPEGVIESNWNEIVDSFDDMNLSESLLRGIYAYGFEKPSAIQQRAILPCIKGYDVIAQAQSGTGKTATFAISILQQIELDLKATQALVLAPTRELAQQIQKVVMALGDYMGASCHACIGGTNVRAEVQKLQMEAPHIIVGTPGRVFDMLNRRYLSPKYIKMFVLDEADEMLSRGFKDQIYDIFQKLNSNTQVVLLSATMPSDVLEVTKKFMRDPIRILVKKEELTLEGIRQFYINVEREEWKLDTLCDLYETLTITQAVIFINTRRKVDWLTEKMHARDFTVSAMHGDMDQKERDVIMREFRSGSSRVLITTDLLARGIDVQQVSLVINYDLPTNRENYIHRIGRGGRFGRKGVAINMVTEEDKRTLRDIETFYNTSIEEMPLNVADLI
UniProt Q14240: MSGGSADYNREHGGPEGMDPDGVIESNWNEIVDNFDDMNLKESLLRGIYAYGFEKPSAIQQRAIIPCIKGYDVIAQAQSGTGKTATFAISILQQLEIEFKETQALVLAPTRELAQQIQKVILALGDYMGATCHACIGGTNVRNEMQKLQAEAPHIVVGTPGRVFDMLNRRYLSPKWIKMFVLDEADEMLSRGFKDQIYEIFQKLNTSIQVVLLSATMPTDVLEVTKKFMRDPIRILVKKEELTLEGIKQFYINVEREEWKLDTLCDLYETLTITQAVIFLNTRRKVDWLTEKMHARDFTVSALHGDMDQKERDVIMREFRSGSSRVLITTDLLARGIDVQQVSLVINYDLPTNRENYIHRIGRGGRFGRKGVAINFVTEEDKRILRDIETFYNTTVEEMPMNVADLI

Experiment [1] concerns the target GFP-eIF4AI (eukaryotic translation initiation factor eIF4AI, GFP fused to the N-terminus) (human) (UniProt P60842). The experiment can be described thus: affinity purification with mass spectrometry; SILAC-labelled 293T cells transfected with GFP or GFP-eIF4AI/II; lysate (10 mM TrisCl pH 7.5, 150 mM NaCl, 0.5 mM EDTA, 0.5% NP40, RNase cocktail) on anti-GFP agarose, 4 °C, 2 hr; eluates mixed 1:1:1, LC-MS/MS; hits above 1.96 SD of the sample/mock ratios.

Experiment [2] addresses GFP-eIF4AII (eukaryotic translation initiation factor eIF4AII, GFP fused to the N-terminus) (human) (UniProt Q14240). The description is as above.

B1: Keratin-1 cytoskeletal 9 (protein, UniProt P35527 1-623)
chain: MSCRQFSSSYLSRSGGGGGGGLGSGGSIRSSYSRFSSSGGGGGGGRFSSSSGYGGGSSRVCGRGGGGSFGYSYGGGSGGGFSASSLGGGFGGGSRGFGGASGGGYSSSGGFGGGFGGGSGGGFGGGYGSGFGGFGGFGGGAGGGDGGILTANEKSTMQELNSRLASYLDKVQALEEANNDLENKIQDWYDKKGPAAIQKNYSPYYNTIDDLKDQIVDLTVGNNKTLLDIDNTRMTLDDFRIKFEMEQNLRQGVDADINGLRQVLDNLTMEKSDLEMQYETLQEELMALKKNHKEEMSQLTGQNSGDVNVEINVAPGKDLTKTLNDMRQEYEQLIAKNRKDIENQYETQITQIEHEVSSSGQEVQSSAKEVTQLRHGVQELEIELQSQLSKKAALEKSLEDTKNRYCGQLQMIQEQISNLEAQITDVRQEIECQNQEYSLLLSIKMRLEKEIETYHNLLEGGQEDFESSGAGKIGLGGRGGSGGSYGRGSRGGSGGSYGGGGSGGGYGGGSGSRGGSGGSYGGGSGSGGGSGGGYGGGSGGGHSGGSGGGHSGGSGGNYGGGSGSGGGSGGGYGGGSGSRGGSGGSHGGGSGFGGESGGSYGGGEEASGSGGGYGGGSGKSSHS
Take B1: the binding result in experiment [1] and in experiment [2] was “no binding” in each case.

The values above are taken from paper PMC4212580.
